PubChem BioAssay AID686937, Drosophila RNAi Screening Center – 2013

Aim: 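Knock-downs that reduce output of a secreted reporter enzyme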 (primary screen)
Cells: Drosophila S2 cells expressing secreted horseradish peroxidase
Knock-down reagent: long dsRNA against Drosophila genes
Timing: about 5.5 days (5 days dsRNA, then 12 h reporter induction)
Challenge: reporter expression induced after 5 days of dsRNA, read 12 h later; inducer not stated
Read-out: 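Chemiluminescent measurement of peroxidase in the medium 12 h after reporter induction, following 5 days of dsRNA, given as a z-score per plate; higher means more secretion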
Direction: z-score: higher = more reporter secreted into medium
The deposit covers about 23,000 reagents; below is a random part of those with a known target gene and a result. 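Reduced-secretion tags in replicate 1 do not always agree with the z-scores; no criterion for assigning the tags was given.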 Names joined by + are all predicted targets of the reagent. Not stated in the record: the amount of reagent.

| Gene | dsRNA | z-score, replicate 1 | z-score, replicate 2 | z-score, replicate 3 | z-score, replicate 4 | phenotype, replicate 1 |
| --- | --- | --- | --- | --- | --- | --- |
| CG13384 (GeneID 34160) | DRSC02258 | 0.11 | 0.26 | – | – | – |
| Rs1 (GeneID 44087) | DRSC05945 | 0.3 | 0.24 | – | – | – |
| mus81 (GeneID 31044) | DRSC18180 | 0.4 | 0.27 | – | – | – |
| mus81 (GeneID 31044) | DRSC18644 | 0.21 | -5.27 | – | – | – |
| Sol1 (GeneID 41513) | DRSC15263 | 0.2 | 0.35 | – | – | – |
| Sol1 (GeneID 41513) | DRSC15271 | 0.13 | 0.2 | – | – | – |
| Sol1 (GeneID 41513) | DRSC15681 | 0.14 | -0.14 | – | – | – |
| E(spl)mgamma-HLH (GeneID 43151) | DRSC16699 | 0.33 | 0.48 | – | – | – |
| CG8564 (GeneID 38825) | DRSC10997 | 0.4 | 0.35 | – | – | – |
| Pect (GeneID 34716) | DRSC02867 | 0.28 | 0.2 | – | – | – |
| Pect (GeneID 34716) | DRSC02868 | -1.22 | -1.34 | – | – | – |
| Uvrag (GeneID 34735) | DRSC02932 | 0.23 | 0.16 | – | – | – |
| ND-B14.7 (GeneID 37385) | DRSC04544 | -0.2 | -0.75 | – | – | – |
| CG11381 (GeneID 31067) | DRSC17780 | 0.23 | 0.21 | – | – | – |
| Ucp4C (GeneID 33832) | DRSC03132 | 0.17 | 0.24 | – | – | – |
| Cdk5 (GeneID 36727) | DRSC07359 | 0.55 | 0.42 | – | – | – |
| CG32816 (GeneID 318225) | DRSC17337 | 0.37 | -0.08 | – | – | – |
| CG31706 (GeneID 261621) | DRSC22704 | -0.73 | -0.15 | – | – | – |
| Cyp6u1 (GeneID 35608) | DRSC05015 | 0.13 | 0.25 | – | – | – |
| Tsp33B (GeneID 34590) | DRSC02418 | 0.36 | 0.3 | – | – | – |
| CG13870 (GeneID 37308) | DRSC06429 | -0.73 | 0.16 | – | – | – |
| CG8260 (GeneID 32521) | DRSC20098 | 0.31 | 0.32 | – | – | – |
| alpha-Man-Ic (GeneID 318624) | DRSC21674 | 2.11 | -0.35 | – | – | – |
| RYa-R (GeneID 43253) | DRSC16757 | 0.36 | 0.32 | – | – | – |
| CG8483 (GeneID 41623) | DRSC16430 | 0.21 | 0.27 | – | – | – |
| Sox21a (GeneID 39567) | DRSC10819 | 0.2 | 0.34 | – | – | – |
| PIP82 (GeneID 31791) | DRSC18694 | 0.34 | -0.01 | – | – | – |
| Shawl (GeneID 5740840) | DRSC02209 | 0.41 | 0.15 | – | – | – |
| Shawl (GeneID 5740840) | DRSC02748 | 0.5 | 0.63 | – | – | – |
| Gnptab (GeneID 35943) | DRSC07057 | 0.13 | 0.2 | – | – | – |
| CG15312 (GeneID 31940) | DRSC18000 | 0.19 | 0.27 | – | – | – |
| CG33172 (GeneID 32526) | DRSC21793 | -0.68 | -0.16 | – | – | – |
| Hr39 (GeneID 35398) | DRSC03346 | 0.29 | 0.16 | – | – | – |
| kl-5 (retired record) (GeneID 3355175) | DRSC20707 | 0.36 | 0.18 | – | – | – |
| kl-5 (retired record) (GeneID 3355175) | DRSC20736 | 0.25 | 0.2 | – | – | – |
| kl-5 (retired record) (GeneID 3355175) | DRSC20773 | 0.41 | 0.15 | – | – | – |
| kl-5 (retired record) (GeneID 3355175) | DRSC21161 | 0.45 | 0.2 | – | – | – |

No new results follow: an excerpt of the list.
| Gene | dsRNA | z-score, replicate 1 | z-score, replicate 2 | z-score, replicate 3 | z-score, replicate 4 | phenotype, replicate 1 |
| --- | --- | --- | --- | --- | --- | --- |
| mus81 (GeneID 31044) | DRSC18180 | 0.4 | 0.27 | – | – | – |
| mus81 (GeneID 31044) | DRSC18644 | 0.21 | -5.27 | – | – | – |
| Sol1 (GeneID 41513) | DRSC15263 | 0.2 | 0.35 | – | – | – |
| Sol1 (GeneID 41513) | DRSC15271 | 0.13 | 0.2 | – | – | – |
| Sol1 (GeneID 41513) | DRSC15681 | 0.14 | -0.14 | – | – | – |
| E(spl)mgamma-HLH (GeneID 43151) | DRSC16699 | 0.33 | 0.48 | – | – | – |
| CG8564 (GeneID 38825) | DRSC10997 | 0.4 | 0.35 | – | – | – |
| Pect (GeneID 34716) | DRSC02867 | 0.28 | 0.2 | – | – | – |
| Pect (GeneID 34716) | DRSC02868 | -1.22 | -1.34 | – | – | – |
| Uvrag (GeneID 34735) | DRSC02932 | 0.23 | 0.16 | – | – | – |
| ND-B14.7 (GeneID 37385) | DRSC04544 | -0.2 | -0.75 | – | – | – |
| CG11381 (GeneID 31067) | DRSC17780 | 0.23 | 0.21 | – | – | – |
| Ucp4C (GeneID 33832) | DRSC03132 | 0.17 | 0.24 | – | – | – |
| Cdk5 (GeneID 36727) | DRSC07359 | 0.55 | 0.42 | – | – | – |
| CG32816 (GeneID 318225) | DRSC17337 | 0.37 | -0.08 | – | – | – |
| CG31706 (GeneID 261621) | DRSC22704 | -0.73 | -0.15 | – | – | – |

The list goes on.
| Gene | dsRNA | z-score, replicate 1 | z-score, replicate 2 | z-score, replicate 3 | z-score, replicate 4 | phenotype, replicate 1 |
| --- | --- | --- | --- | --- | --- | --- |
| CG8958 (GeneID 32575) | DRSC20134 | 0.15 | 0.28 | – | – | – |
| CG15728 (GeneID 32214) | DRSC19694 | 0.47 | 0.58 | – | – | – |
| CG15728 (GeneID 32214) | DRSC22868 | 0.56 | 0.75 | – | – | – |
| GstD10 (GeneID 59240) | DRSC15346 | 0.27 | 0.38 | – | – | – |
| rl (GeneID 3354888) | DRSC07833 | -0.41 | -0.17 | – | – | – |
| rl (GeneID 3354888) | DRSC20742 | -1.06 | -0.57 | – | – | – |
| rl (GeneID 3354888) | DRSC21814 | -0.8 | -0.78 | – | – | reduced secretion |
| CG2017 (GeneID 40733) | DRSC12293 | 0.46 | 0.2 | – | – | – |
| CG34107 (GeneID 4379852) | DRSC14554 | 0.4 | 0.59 | – | – | – |
| Swip-1 (GeneID 35158) | DRSC02083 | 0.1 | 0.09 | – | – | – |
| Swip-1 (GeneID 35158) | DRSC02084 | 0.13 | 0.5 | – | – | – |
| CG9410 + CG15908 | DRSC04976 | -0.05 | -0.18 | – | – | – |
| CG9410 + CG15908 | DRSC05001 | 0.2 | 0.28 | – | – | – |
| sunz (GeneID 40811) | DRSC12559 | 0.28 | 0.28 | – | – | – |
| Rtnl1 (GeneID 33721) | DRSC00851 | 0.45 | 0.11 | – | – | – |
| Rtnl1 (GeneID 33721) | DRSC02684 | 0.36 | 0.34 | – | – | – |
| Rtnl1 (GeneID 33721) | DRSC03122 | 0.38 | 0.13 | – | – | – |
| Rtnl1 (GeneID 33721) | DRSC21698 | -0.29 | -0.46 | – | – | – |
| CG10073 (GeneID 37225) | DRSC05961 | 0.24 | -0.15 | – | – | – |
| La (GeneID 35305) | DRSC03358 | 0.19 | 0.38 | – | – | – |
| Caf1-180 (GeneID 31801) | DRSC17807 | 0.33 | 0.44 | – | – | – |
| CG12540 (GeneID 32393) | DRSC19471 | 0.23 | 0.43 | – | – | – |
| dpr5 (GeneID 41381) | DRSC15766 | 0.19 | 0.44 | – | – | – |
| Prosalpha3T (GeneID 43679) | DRSC15226 | 0.15 | -0.92 | – | – | – |
| CG4806 (GeneID 37948) | DRSC04491 | -0.04 | -0.33 | – | – | – |
| Ssk (GeneID 40207) | DRSC10756 | 0.2 | 0.12 | – | – | – |
| GIIIspla2 (GeneID 31747) | DRSC18094 | 0.68 | 0.61 | – | – | – |
| cyst (GeneID 35237) | DRSC02023 | 0.14 | 0.22 | – | – | – |
| CG1172 + Or83a | DRSC12357 | 0.17 | 0.52 | – | – | – |
| JMJD7 (GeneID 39514) | DRSC09703 | 0.7 | 0.94 | – | – | reduced secretion |
| Hmu (GeneID 43294) | DRSC16705 | 0.23 | -0.09 | – | – | – |
| CG13694 (GeneID 33169) | DRSC00363 | 0.16 | -0.25 | – | – | – |
| toy (GeneID 43833) | DRSC17222 | 0.1 | 0.06 | – | – | – |
| CG14204 (GeneID 32950) | DRSC19559 | -0.78 | -0.14 | – | – | – |
| Eip93F (GeneID 44936) | DRSC13527 | 0.46 | 0.67 | – | – | – |
| Eip93F (GeneID 44936) | DRSC16661 | -0.24 | 0.31 | – | – | – |
| Eip93F (GeneID 44936) | DRSC21754 | -0.55 | 0.22 | – | – | – |
| Su(z)3 (retired record) (GeneID 48315) | DRSC07558 | -2.5 | -3.11 | – | – | reduced secretion |
| hydra (GeneID 33058) | DRSC20497 | 0.17 | 0.32 | – | – | – |
| CG30412 (GeneID 37691) | DRSC04564 | 0.6 | 0.37 | 0.58 | 0.25 | – |
| Srg2 (GeneID 39179) | DRSC10681 | 0.31 | 0.23 | – | – | – |
| CG2972 (GeneID 31943) | DRSC18250 | 0.38 | 0.3 | – | – | – |
| CG34225 (GeneID 5740807) | DRSC05270 | 0.1 | 0.25 | – | – | – |
| dtr (GeneID 318856) | DRSC01847 | 0.3 | 0.37 | – | – | – |
| Traf-like (GeneID 32611) | DRSC19894 | 0.44 | 0.27 | – | – | – |
| CG13295 (GeneID 38692) | DRSC09969 | 0.56 | 0.41 | – | – | – |
| Smyd4-3 (GeneID 36234) | DRSC07041 | 0.32 | 0.36 | – | – | – |
| Sk1 (GeneID 32089) | DRSC19774 | -0.65 | -1.18 | – | – | – |
| Rpi (GeneID 246599) | DRSC04583 | -0.01 | 0.01 | – | – | – |
| TpnC41C (GeneID 35473) | DRSC04916 | 0.16 | 0.22 | – | – | – |
| obst-I (GeneID 317966) | DRSC08339 | 0.22 | 0.26 | – | – | – |
| CheB42c (GeneID 2768715) | DRSC04972 | 0.19 | 0.29 | – | – | – |
| ssp7 (GeneID 318146) | DRSC18878 | 0.31 | 0.43 | – | – | – |
| Blos2 (GeneID 39234) | DRSC10147 | 0.4 | 0.51 | – | – | – |
| bs (GeneID 37890) | DRSC04676 | 0.42 | 0.13 | 0.28 | 0.32 | reduced secretion |
| nAChRalpha2 (GeneID 42919) | DRSC17009 | 0.21 | 0.29 | – | – | – |
| ScsbetaA (GeneID 41067) | DRSC14446 | 0.22 | 0.31 | – | – | – |
| CG31371 (GeneID 43626) | DRSC15079 | 0.27 | 0.4 | – | – | – |
| emb (GeneID 34167) | DRSC03528 | -0.5 | -0.56 | – | – | – |
| Rheb (GeneID 117332) | DRSC12148 | -3.71 | -4.16 | – | – | reduced secretion |
| CG5002 (GeneID 37025) | DRSC06911 | 0.36 | 0.59 | – | – | – |
| CG13676 (GeneID 38906) | DRSC10035 | 0.41 | -0.01 | – | – | – |
| Ugt36D1 (GeneID 35138) | DRSC02600 | 0.18 | 0.29 | – | – | – |
| gwl (GeneID 45969) | DRSC16305 | 0.39 | 0.15 | – | – | – |
| Cpr30F (GeneID 318997) | DRSC02908 | 0.52 | 0.46 | – | – | – |
| PIG-U (GeneID 34185) | DRSC02193 | 0.44 | 0.31 | – | – | – |
| CG18808 (GeneID 59169) | DRSC08539 | 0.13 | 0.17 | – | – | – |
